Measurements: the supplement of paper PMC7666118
Some of the results follow.

Protein sequences, listed by entry. Tags and fused reporters are not part of them. Lines headed by an entry give the natural chain unless they say otherwise; changes in a name come on top.
UniProt Q96RU3: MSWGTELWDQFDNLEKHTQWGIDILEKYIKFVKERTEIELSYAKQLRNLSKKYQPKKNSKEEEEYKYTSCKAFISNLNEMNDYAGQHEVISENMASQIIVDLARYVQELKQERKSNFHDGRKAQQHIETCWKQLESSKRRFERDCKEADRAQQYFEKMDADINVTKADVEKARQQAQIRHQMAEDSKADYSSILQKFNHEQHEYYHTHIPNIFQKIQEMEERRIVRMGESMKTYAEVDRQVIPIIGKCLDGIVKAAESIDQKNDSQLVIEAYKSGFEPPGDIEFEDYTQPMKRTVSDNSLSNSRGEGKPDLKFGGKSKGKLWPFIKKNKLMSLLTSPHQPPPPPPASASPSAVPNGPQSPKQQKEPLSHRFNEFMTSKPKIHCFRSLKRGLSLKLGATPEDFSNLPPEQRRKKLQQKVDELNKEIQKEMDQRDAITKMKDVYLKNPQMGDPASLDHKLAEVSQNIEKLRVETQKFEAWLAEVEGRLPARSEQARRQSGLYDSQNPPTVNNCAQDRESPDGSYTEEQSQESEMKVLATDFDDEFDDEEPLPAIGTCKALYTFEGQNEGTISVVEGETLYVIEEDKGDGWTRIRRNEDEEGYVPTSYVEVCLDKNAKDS
UniProt Q8IWF2: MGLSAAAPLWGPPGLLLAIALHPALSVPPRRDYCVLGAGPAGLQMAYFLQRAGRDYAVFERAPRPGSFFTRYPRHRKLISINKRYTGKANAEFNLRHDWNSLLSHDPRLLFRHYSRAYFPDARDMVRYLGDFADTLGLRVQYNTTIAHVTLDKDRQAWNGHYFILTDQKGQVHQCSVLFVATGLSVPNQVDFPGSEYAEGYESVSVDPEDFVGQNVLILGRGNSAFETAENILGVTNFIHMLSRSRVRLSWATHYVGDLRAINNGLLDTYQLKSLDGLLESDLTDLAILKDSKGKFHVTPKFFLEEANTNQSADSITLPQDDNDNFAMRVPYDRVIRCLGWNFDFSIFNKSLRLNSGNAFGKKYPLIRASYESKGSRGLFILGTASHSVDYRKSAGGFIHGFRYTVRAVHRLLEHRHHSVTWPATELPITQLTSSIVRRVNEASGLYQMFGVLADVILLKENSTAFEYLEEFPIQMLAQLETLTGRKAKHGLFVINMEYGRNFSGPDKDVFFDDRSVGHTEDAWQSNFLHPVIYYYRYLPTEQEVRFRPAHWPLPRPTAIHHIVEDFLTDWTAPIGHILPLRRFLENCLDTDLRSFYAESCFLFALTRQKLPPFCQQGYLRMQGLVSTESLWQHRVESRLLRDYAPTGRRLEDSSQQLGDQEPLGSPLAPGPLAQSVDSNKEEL
UniProt Q9HCG7: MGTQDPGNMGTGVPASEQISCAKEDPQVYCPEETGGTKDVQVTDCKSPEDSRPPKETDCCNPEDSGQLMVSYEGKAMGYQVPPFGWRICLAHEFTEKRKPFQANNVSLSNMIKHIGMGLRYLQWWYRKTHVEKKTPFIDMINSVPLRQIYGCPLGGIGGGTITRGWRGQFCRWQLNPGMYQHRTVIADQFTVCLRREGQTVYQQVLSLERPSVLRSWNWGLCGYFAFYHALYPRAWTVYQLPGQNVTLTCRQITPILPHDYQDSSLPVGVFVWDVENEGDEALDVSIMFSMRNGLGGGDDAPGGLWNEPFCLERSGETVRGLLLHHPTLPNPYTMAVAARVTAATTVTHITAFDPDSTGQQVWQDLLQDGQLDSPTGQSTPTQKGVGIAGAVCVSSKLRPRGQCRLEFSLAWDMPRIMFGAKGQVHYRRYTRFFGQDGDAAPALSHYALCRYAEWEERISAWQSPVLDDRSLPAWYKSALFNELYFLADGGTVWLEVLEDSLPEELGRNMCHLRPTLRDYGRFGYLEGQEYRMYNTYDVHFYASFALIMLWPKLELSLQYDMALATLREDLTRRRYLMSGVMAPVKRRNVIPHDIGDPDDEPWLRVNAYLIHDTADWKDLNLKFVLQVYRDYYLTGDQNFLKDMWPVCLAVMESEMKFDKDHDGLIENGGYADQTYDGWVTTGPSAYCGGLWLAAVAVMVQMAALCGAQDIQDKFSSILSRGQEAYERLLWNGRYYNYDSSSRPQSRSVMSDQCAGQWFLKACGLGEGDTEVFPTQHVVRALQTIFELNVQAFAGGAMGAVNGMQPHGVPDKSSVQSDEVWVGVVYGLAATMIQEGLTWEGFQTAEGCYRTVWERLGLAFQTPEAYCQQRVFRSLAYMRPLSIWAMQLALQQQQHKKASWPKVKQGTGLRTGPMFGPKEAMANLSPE
UniProt Q5HYJ3: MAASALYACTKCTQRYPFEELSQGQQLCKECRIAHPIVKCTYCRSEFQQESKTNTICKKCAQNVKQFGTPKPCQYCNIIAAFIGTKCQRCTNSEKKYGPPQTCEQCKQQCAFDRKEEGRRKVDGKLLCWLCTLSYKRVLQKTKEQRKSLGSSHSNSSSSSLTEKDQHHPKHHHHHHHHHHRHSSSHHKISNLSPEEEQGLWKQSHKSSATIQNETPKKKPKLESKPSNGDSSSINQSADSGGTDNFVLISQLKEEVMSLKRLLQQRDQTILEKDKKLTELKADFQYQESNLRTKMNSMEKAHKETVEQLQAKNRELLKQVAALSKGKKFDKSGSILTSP
UniProt Q02790: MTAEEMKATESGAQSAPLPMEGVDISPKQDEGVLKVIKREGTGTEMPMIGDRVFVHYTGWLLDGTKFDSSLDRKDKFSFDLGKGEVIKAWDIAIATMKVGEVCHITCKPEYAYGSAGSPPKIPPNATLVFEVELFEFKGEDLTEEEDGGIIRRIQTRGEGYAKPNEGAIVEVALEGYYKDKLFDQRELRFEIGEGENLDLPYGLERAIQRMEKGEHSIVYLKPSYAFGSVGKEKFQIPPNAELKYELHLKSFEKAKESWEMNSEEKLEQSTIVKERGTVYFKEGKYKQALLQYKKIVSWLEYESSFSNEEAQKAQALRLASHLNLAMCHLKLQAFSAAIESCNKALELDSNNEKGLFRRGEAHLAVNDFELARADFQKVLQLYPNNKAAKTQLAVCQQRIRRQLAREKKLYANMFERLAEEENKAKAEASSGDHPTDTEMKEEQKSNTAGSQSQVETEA
UniProt O14526: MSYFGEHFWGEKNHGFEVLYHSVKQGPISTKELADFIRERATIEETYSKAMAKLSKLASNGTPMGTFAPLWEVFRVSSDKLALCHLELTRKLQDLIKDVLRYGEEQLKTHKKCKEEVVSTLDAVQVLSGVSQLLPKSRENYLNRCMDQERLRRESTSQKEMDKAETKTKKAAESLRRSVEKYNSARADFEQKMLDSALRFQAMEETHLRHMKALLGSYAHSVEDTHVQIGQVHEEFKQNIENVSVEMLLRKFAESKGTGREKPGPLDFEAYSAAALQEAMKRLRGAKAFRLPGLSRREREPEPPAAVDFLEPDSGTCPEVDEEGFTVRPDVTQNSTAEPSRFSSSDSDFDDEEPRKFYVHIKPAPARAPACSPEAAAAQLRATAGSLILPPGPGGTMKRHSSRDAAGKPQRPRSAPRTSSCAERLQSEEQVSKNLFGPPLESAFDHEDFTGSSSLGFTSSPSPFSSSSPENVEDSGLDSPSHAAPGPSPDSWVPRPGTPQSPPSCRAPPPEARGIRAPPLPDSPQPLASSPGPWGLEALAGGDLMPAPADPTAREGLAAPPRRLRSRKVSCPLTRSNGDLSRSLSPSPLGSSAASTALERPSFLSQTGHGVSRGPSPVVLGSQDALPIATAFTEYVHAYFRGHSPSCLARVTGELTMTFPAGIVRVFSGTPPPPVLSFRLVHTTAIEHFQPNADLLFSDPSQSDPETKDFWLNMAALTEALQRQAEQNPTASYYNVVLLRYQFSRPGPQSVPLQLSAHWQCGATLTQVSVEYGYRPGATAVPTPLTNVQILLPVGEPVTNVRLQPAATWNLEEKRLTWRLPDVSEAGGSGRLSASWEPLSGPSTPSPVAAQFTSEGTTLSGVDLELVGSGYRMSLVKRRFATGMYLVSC
UniProt Q13451: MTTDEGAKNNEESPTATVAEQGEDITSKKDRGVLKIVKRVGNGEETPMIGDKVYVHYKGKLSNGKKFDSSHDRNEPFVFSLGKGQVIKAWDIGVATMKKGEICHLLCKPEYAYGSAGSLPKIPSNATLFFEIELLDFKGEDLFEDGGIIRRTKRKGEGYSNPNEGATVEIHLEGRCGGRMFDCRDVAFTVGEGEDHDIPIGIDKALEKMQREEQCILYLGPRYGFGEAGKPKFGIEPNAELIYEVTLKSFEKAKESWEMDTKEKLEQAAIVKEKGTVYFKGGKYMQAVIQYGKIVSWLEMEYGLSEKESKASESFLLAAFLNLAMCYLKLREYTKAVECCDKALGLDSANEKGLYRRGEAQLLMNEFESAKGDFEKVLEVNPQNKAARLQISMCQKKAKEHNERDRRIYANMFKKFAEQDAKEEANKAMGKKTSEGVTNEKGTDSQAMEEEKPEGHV
UniProt P31995: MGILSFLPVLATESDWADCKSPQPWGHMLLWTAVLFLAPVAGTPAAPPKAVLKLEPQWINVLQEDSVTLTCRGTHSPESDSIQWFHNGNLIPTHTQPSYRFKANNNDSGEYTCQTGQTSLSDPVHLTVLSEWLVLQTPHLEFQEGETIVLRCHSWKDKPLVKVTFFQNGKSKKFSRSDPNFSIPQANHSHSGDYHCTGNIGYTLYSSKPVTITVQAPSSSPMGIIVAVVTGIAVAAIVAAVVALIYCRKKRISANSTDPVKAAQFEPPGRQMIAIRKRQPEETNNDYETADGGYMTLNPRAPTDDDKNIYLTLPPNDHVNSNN
UniProt Q9NSD9: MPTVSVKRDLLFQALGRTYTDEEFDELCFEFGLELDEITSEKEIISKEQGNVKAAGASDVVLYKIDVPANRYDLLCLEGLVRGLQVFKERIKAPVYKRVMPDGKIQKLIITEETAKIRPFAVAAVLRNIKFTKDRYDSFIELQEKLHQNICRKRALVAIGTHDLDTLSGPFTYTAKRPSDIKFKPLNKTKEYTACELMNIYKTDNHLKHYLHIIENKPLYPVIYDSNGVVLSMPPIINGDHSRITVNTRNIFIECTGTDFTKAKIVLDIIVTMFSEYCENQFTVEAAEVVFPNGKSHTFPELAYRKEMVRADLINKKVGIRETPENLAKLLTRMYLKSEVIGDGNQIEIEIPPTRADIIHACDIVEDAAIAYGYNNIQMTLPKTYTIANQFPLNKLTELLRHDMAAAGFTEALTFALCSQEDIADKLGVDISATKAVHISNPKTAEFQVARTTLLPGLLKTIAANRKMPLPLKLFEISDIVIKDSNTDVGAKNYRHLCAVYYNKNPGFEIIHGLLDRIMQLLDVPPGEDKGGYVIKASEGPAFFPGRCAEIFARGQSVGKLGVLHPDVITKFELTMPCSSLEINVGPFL
UniProt O95749: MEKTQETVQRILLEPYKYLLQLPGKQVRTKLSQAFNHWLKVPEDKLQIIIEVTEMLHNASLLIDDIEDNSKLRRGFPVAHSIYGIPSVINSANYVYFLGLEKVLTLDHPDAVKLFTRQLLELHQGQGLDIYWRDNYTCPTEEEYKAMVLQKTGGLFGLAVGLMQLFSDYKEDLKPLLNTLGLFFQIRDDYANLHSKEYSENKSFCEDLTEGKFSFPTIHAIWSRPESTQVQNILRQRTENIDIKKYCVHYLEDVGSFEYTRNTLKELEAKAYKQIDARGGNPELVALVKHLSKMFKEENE
UniProt P35754: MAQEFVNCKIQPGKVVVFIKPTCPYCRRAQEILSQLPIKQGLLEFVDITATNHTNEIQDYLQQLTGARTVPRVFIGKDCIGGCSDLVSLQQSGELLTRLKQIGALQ
UniProt Q06547, whole entry: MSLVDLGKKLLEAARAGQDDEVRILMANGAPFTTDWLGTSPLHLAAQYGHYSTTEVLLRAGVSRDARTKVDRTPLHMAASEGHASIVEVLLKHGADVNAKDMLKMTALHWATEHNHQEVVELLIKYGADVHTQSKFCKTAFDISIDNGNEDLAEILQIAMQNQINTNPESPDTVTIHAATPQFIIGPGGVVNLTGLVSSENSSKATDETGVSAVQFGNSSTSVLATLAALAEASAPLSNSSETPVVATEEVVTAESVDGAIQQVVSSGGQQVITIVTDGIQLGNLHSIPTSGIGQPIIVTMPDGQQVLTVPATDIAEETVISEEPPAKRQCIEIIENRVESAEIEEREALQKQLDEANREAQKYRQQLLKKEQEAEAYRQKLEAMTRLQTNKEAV
UniProt Q9BYB4: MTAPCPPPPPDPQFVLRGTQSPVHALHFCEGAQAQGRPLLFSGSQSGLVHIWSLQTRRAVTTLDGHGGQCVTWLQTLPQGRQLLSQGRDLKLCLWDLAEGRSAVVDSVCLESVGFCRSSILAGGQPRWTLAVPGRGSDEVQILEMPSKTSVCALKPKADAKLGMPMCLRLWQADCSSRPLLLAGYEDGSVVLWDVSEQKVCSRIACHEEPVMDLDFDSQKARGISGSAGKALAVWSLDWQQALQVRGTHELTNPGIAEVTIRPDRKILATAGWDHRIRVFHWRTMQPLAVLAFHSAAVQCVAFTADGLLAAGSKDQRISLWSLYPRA
UniProt P10109: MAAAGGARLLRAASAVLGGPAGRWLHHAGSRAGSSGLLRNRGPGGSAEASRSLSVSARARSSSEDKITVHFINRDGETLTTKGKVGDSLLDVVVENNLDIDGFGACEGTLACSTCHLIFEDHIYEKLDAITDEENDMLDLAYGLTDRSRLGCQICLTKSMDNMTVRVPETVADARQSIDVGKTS

Compound: COc1ccc(Cn2ccc3cc(C)c(C(=O)NO)cc32)cc1
Assay: dose-dependent thermal stabilisation call (2D-TPP, DLPTP, 10% FDR) (binary (1 = stabilised)); higher = stabilised by the compound
Conditions: system: HL-60 intact cells; concentration range 0.04-10 µM
Protocol: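 2D thermal proteome profiling in intact HL-60 cells treated with BRD-3811 (0, 0.04, 0.29, 2, 10 uM) for 90 min at 37 C, then heated 3 min at one of 12 temperatures (42-63.9 C). Soluble protein was quantified by TMT10 MS. The value is the DLPTP call of the paper: dose-dependent thermal stabilisation over all temperatures at 10% FDR (F-test of a dose-response against a flat model); one experiment, one call per tested protein.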

Target | dose-dependent thermal stabilisation call
GHITM (UniProt Q9H3K2) | inactive: 0
FDFT1 (UniProt P37268) | inactive: 0
FAM62B (UniProt A0FGR8) | inactive: 0
FUNDC2 (UniProt Q9BWH2) | inactive: 0
GGA2 (UniProt Q9UJY4) | inactive: 0
FNBP1 (UniProt Q96RU3) | inactive: 0
FMR1 (UniProt Q06787) | inactive: 0
GBF1 (UniProt Q92538) | inactive: 0
GLUL (UniProt P15104) | inactive: 0
FTO (UniProt Q9C0B1) | inactive: 0
FIS1 (UniProt Q9Y3D6) | inactive: 0
GARS (UniProt P41250) | inactive: 0
FOXRED2 (UniProt Q8IWF2) | inactive: 0
FAU (UniProt P62861) | inactive: 0
GMEB1 (UniProt Q9Y692) | inactive: 0
G3BP1 (UniProt Q13283) | inactive: 0
GMPPB (UniProt Q9Y5P6) | inactive: 0
FUT11 (UniProt Q495W5) | inactive: 0
GBE1 (UniProt Q04446) | inactive: 0
GALNT14 (UniProt Q96FL9) | inactive: 0
GFER (UniProt P55789) | inactive: 0
GCC1 (UniProt Q96CN9) | inactive: 0
GIT2 (UniProt Q14161) | inactive: 0
FGD3 (UniProt Q5JSP0) | inactive: 0

Target | dose-dependent thermal stabilisation call
FBXO38 (UniProt Q6PIJ6) | inactive: 0
GBA2 (UniProt Q9HCG7) | inactive: 0
FNTA (UniProt P49354) | inactive: 0
FAM76B (UniProt Q5HYJ3) | inactive: 0
FAT1 (UniProt Q14517) | inactive: 0
FKBP4 (UniProt Q02790) | inactive: 0
FEZ2 (UniProt Q9UHY8) | inactive: 0
FBXO5 (UniProt Q9UKT4) | inactive: 0
FKSG24 (UniProt Q567V2) | inactive: 0
FCHO1 (UniProt O14526) | inactive: 0
FUSIP1 (UniProt O75494) | inactive: 0
FLJ21865 | inactive: 0
GCS1 (UniProt Q13724) | inactive: 0
FKBP5 (UniProt Q13451) | inactive: 0
FCGR2C (UniProt P31995) | inactive: 0
FAR2 (UniProt Q96K12) | inactive: 0
FANCB (UniProt Q8NB91) | inactive: 0
FARSB (UniProt Q9NSD9) | inactive: 0
FLJ12529 | inactive: 0
FERMT3 (UniProt Q86UX7) | inactive: 0
GGPS1 (UniProt O95749) | inactive: 0
GLT25D2 (UniProt Q8IYK4) | inactive: 0
GCLM (UniProt P48507) | inactive: 0
GMPS (UniProt P49915) | inactive: 0

Target | dose-dependent thermal stabilisation call
GLRX (UniProt P35754) | inactive: 0
GABPB1 (UniProt Q06547) | inactive: 0
FOSB (UniProt P53539) | inactive: 0
GLT8D1 (UniProt Q68CQ7) | inactive: 0
GINS4 (UniProt Q9BRT9) | inactive: 0
GIGYF2 (UniProt Q6Y7W6) | inactive: 0
GALK2 (UniProt Q01415) | inactive: 0
GNB1L (UniProt Q9BYB4) | inactive: 0
FMNL2 (UniProt Q96PY5) | inactive: 0
GCA (UniProt P28676) | inactive: 0
FAM91A1 (UniProt Q658Y4) | inactive: 0
FDX1 (UniProt P10109) | inactive: 0
FAM98A (UniProt Q8NCA5) | inactive: 0
GART (UniProt P22102) | inactive: 0
GK (UniProt P32189) | inactive: 0
GAR1 (UniProt Q9NY12) | inactive: 0
FASTKD5 (UniProt Q7L8L6) | inactive: 0
FLNA (UniProt P21333) | inactive: 0
GLE1 (UniProt Q53GS7) | inactive: 0
FBXO33 (UniProt Q7Z6M2) | inactive: 0
GNA13 (UniProt Q14344) | inactive: 0
FBXL10 (UniProt Q8NHM5) | inactive: 0
FLOT1 (UniProt O75955) | inactive: 0
G3BP2 (UniProt Q9UN86) | inactive: 0

Exported tab-delimited: part of the list above
Target	dose-dependent thermal stabilisation call
FOSB (UniProt P53539)	inactive: 0
GINS4 (UniProt Q9BRT9)	inactive: 0
GNB1L (UniProt Q9BYB4)	inactive: 0
FLNA (UniProt P21333)	inactive: 0
